Assay results taken from PMC12846431.
Results are given in words; binding and its absence hold for the method and conditions named. Sequences can lack the tags named with a protein.

B1: MBP-ICL4 (Serinc3 intracellular loop 4, 354–404, fused to MBP) (domain or fragment, UniProt Q13530 354-404)
chain: RTSTNSQVDKLTLSGSDSVILGDTTTSGASDEEDGQPRRAVDNEKEGVQYS

These molecules were tested against MBP-Nef (HIV-1 NL4.3 Nef 26–206 fused to an N-terminal 6xHis-MBP tag) (HIV-1 (NL4.3)) (UniProt Q90VU7) (assay: SEC; both purified).

Question: For “MBP-ICL3 (Serinc3 intracellular loop 3, 259–267, fused to MBP) (from UniProt Q13530 259-267) (domain or fragment)”, which binding is on record?
Answer: no binding (tested: 0.5 mg each in 500 μL)

Question: How did the binding turn out when “MBP-ICL2 (Serinc3 intracellular loop 2, 181–204, fused to MBP) (from UniProt Q13530 181-204) (domain or fragment)” was run?
Answer: no binding (tested: 0.5 mg each in 500 μL)

Question: For “MBP-ICL1 (Serinc3 intracellular loop 1, 120–131, fused to MBP) (from UniProt Q13530 120-131) (domain or fragment)”, which binding is on record?
Answer: no binding (tested: 0.5 mg each in 500 μL)

Question: B1 was tested. Which binding did it give?
Answer: no binding (tested: 0.5 mg each in 500 μL)
